Positions count from the first letter of the chain named. No constants are given. Whether binding was seen depends on the method and setting. For part of these data: In cells and extracts the contact can be indirect. Some entries that bind do so weakly or less than the wild type. Tags and fused reporters may be left off the sequences shown.
How the values were obtained:
[1] = molecular target: T1, T33-15B, C-terminally His-tagged; experiment: negative stain electron microscopy of the unpurified mixture of independently purified components, FIG. 6B
T1 sequence: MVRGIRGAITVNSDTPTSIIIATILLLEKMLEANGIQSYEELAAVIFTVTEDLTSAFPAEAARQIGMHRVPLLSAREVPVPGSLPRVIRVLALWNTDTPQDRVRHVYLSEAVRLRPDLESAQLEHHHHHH

[2] = molecular target: T1, T33-15B, C-terminally His-tagged; experiment: SEC after mixing the two purified components in a 1:1 molar ratio, two hours at room temperature
[3] = molecular target: T1, T33-15B, C-terminally His-tagged; experiment: native PAGE after mixing crude lysates of separately expressed His-tagged components, two hours at room temperature
[4] = molecular target: T1, T33-15B, C-terminally His-tagged; experiment: analytical SEC after mixing purified His-tagged components 1:1, each at 50 µM subunit, two hours at room temperature, 5% glycerol
[5] = molecular target: T1, T33-15B, C-terminally His-tagged; experiment: native PAGE after in vitro mixing of cell lysates
[6] = molecular target: T1, T33-15B, C-terminally His-tagged; experiment: native PAGE after in vitro mixing of crude lysates of separately expressed components; more efficient assembly with adjusted volumes (lane 8), FIG. 5B
[7] = molecular target: T1, T33-15B, C-terminally His-tagged; experiment: native PAGE after mixing cleared lysates of separately expressed His-tagged components
[8] = molecular target: T2, T33-28B, C-terminally His-tagged; experiment: nickel affinity co-purification (His tag on one subunit only) and SEC, co-expressed in E. coli
T2 sequence: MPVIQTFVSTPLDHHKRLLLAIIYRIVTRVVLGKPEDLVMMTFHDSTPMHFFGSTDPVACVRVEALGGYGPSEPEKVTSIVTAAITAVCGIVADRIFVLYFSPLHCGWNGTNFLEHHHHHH

[9] = molecular target: T2, T33-28B, C-terminally His-tagged; experiment: analytical SEC, FIG. 5A
[10] = molecular target: T2, T33-28B, C-terminally His-tagged; experiment: X-ray crystal structure of the assembled cage, PDB 4NWR, 3.5 A
[11] = molecular target: T3, T33-28B, C-terminally A1-tagged; experiment: native PAGE of cleared lysates, initial screen of co-expressed (A1-tagged) constructs
T3 sequence: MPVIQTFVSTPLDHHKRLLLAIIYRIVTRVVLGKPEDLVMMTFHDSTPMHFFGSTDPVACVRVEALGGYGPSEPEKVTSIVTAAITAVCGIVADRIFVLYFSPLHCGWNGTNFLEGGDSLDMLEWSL

[12] = molecular target: T2, T33-28B, C-terminally His-tagged; experiment: negative stain electron microscopy of purified co-expressed material, FIG. 6A
[13] = molecular target: T4, T33-21B, C-terminally His-tagged; experiment: nickel affinity co-purification (His tag on one subunit only) and SEC, co-expressed in E. coli
T4 sequence: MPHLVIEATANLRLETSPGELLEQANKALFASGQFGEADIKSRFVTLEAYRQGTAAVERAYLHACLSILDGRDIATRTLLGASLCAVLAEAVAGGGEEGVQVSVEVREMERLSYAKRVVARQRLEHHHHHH

[14] = molecular target: T4, T33-21B, C-terminally His-tagged; experiment: analytical SEC, FIG. 5A
[15] = molecular target: T4, T33-21B, C-terminally His-tagged; experiment: X-ray crystal structures of the assembled cage, PDB 4NWP (R32) and 4NWQ (F4132)
[16] = molecular target: T5, T33-21B, C-terminally A1-tagged; experiment: native PAGE of cleared lysates, initial screen of co-expressed (A1-tagged) constructs
T5 sequence: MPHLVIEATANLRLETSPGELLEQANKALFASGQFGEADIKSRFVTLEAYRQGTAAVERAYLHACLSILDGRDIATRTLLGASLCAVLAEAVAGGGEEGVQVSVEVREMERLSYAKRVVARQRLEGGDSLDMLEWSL

[17] = molecular target: T4, T33-21B, C-terminally His-tagged; experiment: negative stain electron microscopy of purified co-expressed material, FIG. 6A
[18] = molecular target: T1, T33-15B, C-terminally His-tagged; experiment: nickel affinity co-purification (His tag on one subunit only) and SEC, co-expressed in E. coli
[19] = molecular target: T1, T33-15B, C-terminally His-tagged; experiment: X-ray crystal structure of the assembled cage, PDB 4NWO, 2.8 A
[20] = molecular target: T1, T33-15B, C-terminally His-tagged; experiment: analytical SEC, FIG. 5A
[21] = molecular target: T1, T33-15B, C-terminally His-tagged; experiment: native PAGE of cell lysate, His-tagged co-expression construct (lane 6), FIG. 5B
[22] = molecular target: T6, T33-15B, C-terminally A1-tagged; experiment: native PAGE of cleared lysates, initial screen of co-expressed (A1-tagged) constructs
T6 sequence: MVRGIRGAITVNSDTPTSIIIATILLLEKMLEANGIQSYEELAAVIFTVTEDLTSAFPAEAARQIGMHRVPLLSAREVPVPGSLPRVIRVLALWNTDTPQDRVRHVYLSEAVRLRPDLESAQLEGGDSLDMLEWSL

[23] = molecular target: T1, T33-15B, C-terminally His-tagged; experiment: negative stain electron microscopy of purified co-expressed material, FIG. 6A
[24] = molecular target: T6, T33-15B, C-terminally A1-tagged; experiment: native PAGE of cell lysate, A1-tagged co-expression construct (lane 5), FIG. 5B
[25] = molecular target: T7, T33-09B, C-terminally His-tagged; experiment: SEC and electron microscopy; no visible band on native PAGE, which the filing puts down to a concentration below the detection limit
T7 sequence: T1 sequence with N12E, S13E, T17A, S18A, I20L, I21A, L25E, E28L, Q64L, S109N

[26] = molecular target: T7, T33-09B, C-terminally His-tagged; experiment: nickel affinity co-purification (His tag on one subunit only) and SEC, co-expressed in E. coli
[27] = molecular target: T8, T33-09B, C-terminally A1-tagged; experiment: native PAGE of cleared lysate
T8 sequence: T6 sequence with N12E, S13E, T17A, S18A, I20L, I21A, L25E, E28L, Q64L, S109N

[28] = molecular target: T7, T33-09B, C-terminally His-tagged; experiment: analytical SEC, FIG. 5A
[29] = molecular target: T8, T33-09B, C-terminally A1-tagged; experiment: native PAGE of cleared lysates, initial screen of co-expressed (A1-tagged) constructs
[30] = molecular target: T7, T33-09B, C-terminally His-tagged; experiment: negative stain electron microscopy of purified co-expressed material, FIG. 6A

Measured: binding

B1: T33-15A, C-terminally His-tagged (designed binder)
chain: MSKAKIGIVTVSDRASAGITADISGKAIILALNLYLTSEWEPIYQVIPDEQDVIETTLIKMADEQDCCLIVTTGGTGPAKRDVTPEATEAVCDRMMPGFGELMRAESLKEVPTAILSRQTAGLRGDSLIVNLPGDPASISDCLLAVFPAIPYCIDLMEGPYLECNEAMIKPFRPKAKLEHHHHHH
binds: [1] | [2] | [3] | [4] | [5] | [6] | [7]

B2: T33-28A (designed binder)
chain: MESVNTSFLSPSLVTIRDFDNGQFAVLRIGRTGFPADKGDIDLCLDKMIGVRAAQIFLGDDTEDGFKGPHIRIRCVDIDDKHTYNAMVYVDLIVGTGASEVERETAEEEAKLALRVALQVDIADEHSCVTQFEMKLREELLSSDSFHPDKDEYYKDFL
binds: [8] | [9] | [10] | [11] | [12]

B3: T33-21A (designed binder)
chain: MRITTKVGDKGSTRLFGGEEVWKDSPIIEANGTLDELTSFIGEAKHYVDEEMKGILEEIQNDIYKIMGEIGSKGKIEGISEERIAWLLKLILRYMEMVNLKSFVLPGGTLESAKLDVCRTIARRALRKVLTVTREFGIGAEAAAYLLALSDLLFLLARVIEIEKNKLKEVRS
binds: [13] | [14] | [15] | [16] | [17]

B4: T33-15A (designed binder)
chain: MSKAKIGIVTVSDRASAGITADISGKAIILALNLYLTSEWEPIYQVIPDEQDVIETTLIKMADEQDCCLIVTTGGTGPAKRDVTPEATEAVCDRMMPGFGELMRAESLKEVPTAILSRQTAGLRGDSLIVNLPGDPASISDCLLAVFPAIPYCIDLMEGPYLECNEAMIKPFRPKAK
binds: [18] | [19] | [20] | [21] | [22] | [23] | [24]

B5: T33-09A (designed binder)
chain: MEEVVLITVPSALVAVKIAHALVEERLAACVNIVPGLTSIYRWQGSVVSDHELLLLVKTTTHAFPKLKERVKALHPYTVPEIVALPIAEGNREYLDWLRENTG
binds: [25] | [26] | [27] | [28] | [29] | [30]
